Laboratory results as given in the supplement of paper PMC12823440, “Inhibitors supercharge kinase turnover through native proteolytic circuits” (Nature, 2025).
This is one part of the list. Hit calls seldom repeat between salt and free forms of one compound.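 Kinases, fused to nanoluciferase, were expressed in K562 cells; luminescence was measured every 4 h from 2 to 18 h as percent of control (DMSO = 100%, positive control = 0%). A time point is decreased if signal falls significantly (2 sigma). Hits were called by the authors by a rule that is not shown; the count of time points alone does not decide it.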

By UniProt entry, the sequences of proteins in these tests, tags left out. Where a name states a change or a piece, a line headed by the entry shows the natural chain unless it says otherwise.
UniProt Q12851: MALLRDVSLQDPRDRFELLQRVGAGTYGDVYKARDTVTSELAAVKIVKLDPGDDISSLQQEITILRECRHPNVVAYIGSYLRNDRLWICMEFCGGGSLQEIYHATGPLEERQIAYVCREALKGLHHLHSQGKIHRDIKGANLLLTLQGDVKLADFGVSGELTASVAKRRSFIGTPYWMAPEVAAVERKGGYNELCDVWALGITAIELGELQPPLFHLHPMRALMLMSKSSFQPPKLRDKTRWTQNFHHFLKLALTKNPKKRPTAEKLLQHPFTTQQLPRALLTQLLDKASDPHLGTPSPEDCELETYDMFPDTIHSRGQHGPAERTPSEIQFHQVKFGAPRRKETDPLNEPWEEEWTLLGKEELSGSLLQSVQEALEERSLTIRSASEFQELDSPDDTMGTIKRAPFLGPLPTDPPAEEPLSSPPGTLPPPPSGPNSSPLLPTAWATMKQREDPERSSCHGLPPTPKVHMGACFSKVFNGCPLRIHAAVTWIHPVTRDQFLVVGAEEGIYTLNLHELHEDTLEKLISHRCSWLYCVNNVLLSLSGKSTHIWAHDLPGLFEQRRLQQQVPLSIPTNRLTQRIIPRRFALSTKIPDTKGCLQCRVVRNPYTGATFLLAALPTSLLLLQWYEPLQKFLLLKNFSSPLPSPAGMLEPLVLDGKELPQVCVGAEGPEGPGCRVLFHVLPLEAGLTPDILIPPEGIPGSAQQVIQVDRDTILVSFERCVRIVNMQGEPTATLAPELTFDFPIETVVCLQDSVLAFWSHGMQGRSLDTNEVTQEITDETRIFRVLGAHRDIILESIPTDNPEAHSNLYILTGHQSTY
UniProt P28482, whole entry: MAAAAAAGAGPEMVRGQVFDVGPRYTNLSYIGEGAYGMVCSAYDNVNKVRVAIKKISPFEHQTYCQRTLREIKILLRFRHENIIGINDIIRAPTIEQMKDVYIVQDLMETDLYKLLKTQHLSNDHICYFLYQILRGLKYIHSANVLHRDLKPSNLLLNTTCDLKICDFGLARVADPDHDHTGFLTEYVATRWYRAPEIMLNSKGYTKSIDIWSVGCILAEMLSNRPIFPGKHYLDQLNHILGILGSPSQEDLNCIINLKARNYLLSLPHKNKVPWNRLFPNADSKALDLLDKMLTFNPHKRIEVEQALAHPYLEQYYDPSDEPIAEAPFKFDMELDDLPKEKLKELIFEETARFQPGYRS

These molecules were tested against MAP4K2 (UniProt Q12851) (assay: number of time points (of 5) at which kinase-Nluc abundance scored as decreased, DMSO-normalised (count); higher = more persistent destabilization). Conditions: K562; 2-18 h.

Compound	number of time points
CN1CCC(CNc2ccc3ncc(-c4cccc(OC(F)(F)F)c4)n3n2)CC1 (2.5 µM)	0
Cc1cc(C(=O)NC(C)(C)C)cc(C#Cc2ccc3c4c(oc3c2)C(C)(C)c2cc(NS(C)(=O)=O)ccc2C4=O)n1 (10 µM)	0
CC(O)(C#Cc1ccc2c(c1)N(c1nc(N)ncc1Cl)CC2)c1nccs1 (stereo not drawn) (2.5 µM)	0
COc1cc(-c2cc(-c3ccc(N4CCNCC4)cc3)cnc2C)cc(OC)c1OC (10 µM)	0
Cn1c(CNc2cccc(C(=O)NCc3ccccc3C(F)(F)F)c2)nnc1-c1ccncc1 (10 µM)	0

These molecules were tested against MAPK1 (UniProt P28482) in the same assay as above. Conditions: K562; 2-18 h.

Compound	number of time points
O=Nc1c(-c2c(O)[nH]c3cc(Br)ccc23)[nH]c2ccccc12 [GSK 3 Inhibitor IX] (2.5 µM)	0
Cn1c2cc([S+](C)[O-])sc2c2cnn(Cc3cccc(N)c3)c(=O)c21 (stereo not drawn) (2.5 µM)	0
Cc1cc(-n2c(=O)ccc3c[nH]c4nccc-4c32)ccc1F (10 µM)	0
CCCn1/c(=N/C(=O)c2cccc(C(N)=O)c2)[nH]c2ccccc21 [Takinib] (10 µM)	0
CO[C@H]1C[C@@H]2CC[C@@H](C)[C@@](O)(O2)C(=O)C(=O)N2CCCC[C@H]2C(=O)O[C@H]([C@H](C)C[C@@H]2CC[C@@H](OCCO)[C@H](OC)C2)CC(=O)[C@H](C)/C=C(\C)[C@@H](O)[C@@H](OC)C(=O)[C@H](C)C[C@H](C)/C=C/C=C/C=C/1C [Everolimus] (10 µM)	0
Cc1cccc(-c2[nH]ncc2-c2ccnc3ccccc23)n1 (10 µM)	0
CC1(N)CCN(c2cccnc2NC(=O)c2nc(-c3ncccc3C(F)(F)F)cnc2N)CC1 [Darovasertib] (10 µM)	0
COc1cc2c(cc1Nc1ncc(C(N)=O)c(Nc3c(F)cccc3C(F)(F)F)n1)CN(C)CC2 (2.5 µM)	0
COc1cc2ncnc(Nc3ccc(O)c(Br)c3)c2cc1OC (10 µM)	0
Nc1nc2c(nc(Br)n2[C@@H]2O[C@@H]3COP(=O)(O)O[C@H]3[C@H]2O)c(=O)[nH]1 [8-Bromo-cGMP (sodium)] (10 µM)	0
O=c1c2c([nH]n1-c1nc3ccccc3s1)CCCC2 (10 µM)	0
COC(=O)Nc1ccc(-c2nc(N3CCOCC3)c3cnn(C4CCN(Cc5cccnc5)CC4)c3n2)cc1 (10 µM)	0
N[C@@H]1CCCN(c2c(/C=C3\SC(=O)NC3=O)cccc2-c2ccccc2)C1 (10 µM)	0
Nc1nc(N)c2nc(-c3cccc(O)c3)c(-c3cccc(O)c3)nc2n1 (10 µM)	0
Cn1ncc(NC(=O)c2nc(-c3c(F)cccc3F)sc2N)c1N1CC[C@@H](N)[C@H](F)CC1 (10 µM)	0
C=C1C(=O)[C@@]23[C@H](O)C[C@@H]4C(C)(C)C(=O)CC[C@@]4(C)[C@@H]2CC[C@@H]1[C@H]3O [Glaucocalyxin A] (2.5 µM)	0
O=C(NCCO)c1cc(C(=O)NCCO)cc(C(=O)NCCO)c1 (10 µM)	0
CCC(=O)Nc1cccc(Oc2nc(Nc3ccc(N4CCN(C)CC4)cc3OC)ncc2Cl)c1 (10 µM)	0
Cc1nn(C)cc1-c1nc2c(N3CCN(Cc4ccc(Cl)cc4)CC3)c(Cl)cnc2[nH]1 (10 µM)	0

Compound	number of time points
CC(C)Oc1ccc(F)c(-c2cnc(N)c(C(=O)Nc3cnccc3N3CCC[C@@H](C(=O)O)C3)n2)c1 (2 µM)	0
Nc1ncc(C(=O)NC2CN(C(=O)C3CC3)C2)c2ccc(-c3cccc(F)c3)nc12 (2 µM)	0
O=C(ON=C1c2ccccc2-c2nc3ccccc3nc21)c1ccco1 (2.5 µM)	0
CC(C)=CC[C@@H](O)C1=CC(=O)c2c(O)ccc(O)c2C1=O [Shikonin] (10 µM)	0
COC(=O)Nc1ccc(-c2nc(N3CCOCC3)c3cnn(C4CCN(C(=O)OC)CC4)c3n2)cc1 (10 µM)	0
CNC(=O)c1ccc2c(c1)ncn2-c1ccc(CC(=O)OC(C)(C)C)cc1 (10 µM)	0
O=C1CC[C@H](NC(=O)Cc2ccccc2)C(=O)N1 [Antineoplaston A10] (10 µM)	0
COCCOCCc1c(C)c2cc(OC)c(O)c(C=O)c2oc1=O (10 µM)	0
Cc1ccc(C(=O)NC2CC2)cc1-n1ncc(C(=O)c2cccc(C#N)c2)c1N [Acumapimod] (10 µM)	0
O=C(NCCN1CCOCC1)Nc1nc2ccc(Sc3nnc4ccc(-c5ccc(F)cc5)nn34)cc2s1 (10 µM)	0
COc1cc(F)ccc1-c1ncnc(Nc2cccc(C[S@](C)(=N)=O)c2)n1 [Atuveciclib] (2.5 µM)	0
CCn1c(-c2nonc2N)nc2c(C#CC(C)(C)O)ncc(OC[C@H]3CCCNC3)c21 (10 µM)	0
O=c1[nH]ccc2nc(-c3ccc(CN4CCC(c5nc(-c6ccccn6)n[nH]5)CC4)cc3)c(-c3ccccc3)cc12 (10 µM)	0
COCCOc1ccc2c(c1)ncn2-c1ccc2cccc(N3CCC(N)CC3)c2n1 (10 µM)	0
CN1CCC(CNc2ccc3ncc(-c4cccc(OC(F)(F)F)c4)n3n2)CC1 (2.5 µM)	0
Cc1cc(C(=O)NC(C)(C)C)cc(C#Cc2ccc3c4c(oc3c2)C(C)(C)c2cc(NS(C)(=O)=O)ccc2C4=O)n1 (10 µM)	0
CC(O)(C#Cc1ccc2c(c1)N(c1nc(N)ncc1Cl)CC2)c1nccs1 (stereo not drawn) (2.5 µM)	0
COc1cc(-c2cc(-c3ccc(N4CCNCC4)cc3)cnc2C)cc(OC)c1OC (10 µM)	0
Cn1c(CNc2cccc(C(=O)NCc3ccccc3C(F)(F)F)c2)nnc1-c1ccncc1 (10 µM)	0
